Data: the supplement of paper PMC4604168 (melanoma cell lines)
The list shows a part of the results. Repeats are few or missing, and single values can be far off.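 Cells were imaged in 1,536-well plates, and nuclei stained with an antibody against cleaved PARP were counted against all DNA-stained nuclei to give the apoptosis fraction. Screening doses were chosen to leave most cells alive, and resting and induced cleaved-PARP levels differ strongly between cell lines.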

Legend:
Test in all cases: cleaved PARP positive nuclei fraction relative to DMSO control; melanoma cells; higher = more apoptosis
Conditions in all cases: library dose: low library concentration; 72 h
[1] = tested on: A101D
[2] = tested on: A2058
[3] = tested on: A375
[4] = tested on: C32
[5] = tested on: CBRC008 (line from a melanoma biopsy)
[6] = tested on: CBRC014 (line from a melanoma biopsy)
[7] = tested on: CBRC016 (line from a melanoma biopsy)
[8] = tested on: CBRC017 (line from a melanoma biopsy)
[9] = tested on: CBRC034 (line from a melanoma biopsy)
[10] = tested on: COLO792
[11] = tested on: COLO800
[12] = tested on: COLO829
[13] = tested on: G361
[14] = tested on: IPC-298
[15] = tested on: IST-MEL1
[16] = tested on: LOXIMVI
[17] = tested on: MEL-HO

| SMILES | cleaved PARP positive nuclei fraction [1] [%] | cleaved PARP positive nuclei fraction [2] [%] | cleaved PARP positive nuclei fraction [3] [%] | cleaved PARP positive nuclei fraction [4] [%] | cleaved PARP positive nuclei fraction [5] [%] | cleaved PARP positive nuclei fraction [6] [%] | cleaved PARP positive nuclei fraction [7] [%] | cleaved PARP positive nuclei fraction [8] [%] | cleaved PARP positive nuclei fraction [9] [%] | cleaved PARP positive nuclei fraction [10] [%] | cleaved PARP positive nuclei fraction [11] [%] | cleaved PARP positive nuclei fraction [12] [%] | cleaved PARP positive nuclei fraction [13] [%] | cleaved PARP positive nuclei fraction [14] [%] | cleaved PARP positive nuclei fraction [15] [%] | cleaved PARP positive nuclei fraction [16] [%] | cleaved PARP positive nuclei fraction [17] [%] |
| --- | --- | --- | --- | --- | --- | --- | --- | --- | --- | --- | --- | --- | --- | --- | --- | --- | --- |
| C[C@]1(O)C[C@@H](c2nc(-c3ccc4ccc(-c5ccccc5)nc4c3)c3c(N)nccn32)C1 + Nc1nc(F)nc2c1ncn2[C@@H]1O[C@H](CO)[C@@H](O)[C@@H]1O [fludarabine] (first compound 0.4 µM, partner dose 0.2 µM) | 43.2 | 130 | 7190 | 216 | 91.6 | 102 | 52.9 | 106 | 99.8 | 123 | 256 | 74.1 | 164 | 96.1 | 58 | 119 | 46.7 |
| CCCCCCCCc1ccc(CCC(N)(CO)CO)cc1 [fingolimod] + COc1ccc(COc2ccc(Cc3cnc(N)nc3N)cc2OC)cc1 [GW2580] (first compound 2 µM, partner dose 1 µM) | 31.6 | 159 |  | 44.4 | 123 | 112 | 53.5 | 63.9 |  | 102 | 135 | 62 | 81.6 | 52.5 | 178 | 50.1 |  |
| C[C@]1(O)C[C@@H](c2nc(-c3ccc4ccc(-c5ccccc5)nc4c3)c3c(N)nccn32)C1 + CC(=O)c1c(C)c2cnc(Nc3ccc(N4CCNCC4)cn3)nc2n(C2CCCC2)c1=O [palbociclib] (first compound 0.4 µM, partner dose 0.04 µM) | 48.9 | 97.5 | 299 | 81.8 | 128 | 122 | 48.9 | 126 | 128 | 94 | 147 | 46.5 | 86.3 | 104 | 31.9 | 54.8 | 53 |
| C[C@]1(O)C[C@@H](c2nc(-c3ccc4ccc(-c5ccccc5)nc4c3)c3c(N)nccn32)C1 + Cn1cc(/C=C2\C(=O)Nc3cccnc32)c2ccccc21 [GW441756] (first compound 0.4 µM, partner dose 0.4 µM) | 26.5 | 164 |  | 30.5 | 140 | 99.1 | 60.6 | 92.9 |  | 129 | 155 | 154 | 112 | 43.9 | 39.8 | 389 |  |
| NC(=O)c1ccc(N(C(N)=O)c2c(F)cccc2F)nc1-c1ccc(F)cc1F + CS(=O)(=O)c1ccc(C(=O)Nc2ccc(Cl)c(-c3ccccn3)c2)c(Cl)c1 [vismodegib] (first compound 0.4 µM, partner dose 1 µM) | 79.6 | 87.8 | 32.8 | 70.4 | 57.2 | 89.9 | 85.4 | 105 | 46.5 | 132 | 79.5 | 49.8 | 82.1 | 81.1 | 56.9 | 93.2 | 47.4 |
| Cn1sc(=O)n(Cc2ccccc2)c1=O + Nc1ccn([C@@H]2O[C@H](CO)[C@@H](O)C2(F)F)c(=O)n1 [gemcitabine] (first compound 0.4 µM, partner dose 0.0004 µM) | 59.8 | 112 | 145 | 69.9 | 188 | 122 | 47.4 | 121 | 220 | 80 | 71.5 | 134 | 138 | 166 | 195 | 121 | 174 |
| CC1(C)CCC(c2ccc(Cl)cc2)=C(CN2CCN(c3ccc(C(=O)NS(=O)(=O)c4ccc(N[C@H](CCN5CCOCC5)CSc5ccccc5)c(S(=O)(=O)C(F)(F)F)c4)cc3)CC2)C1 + Cn1cnc2c(F)c(Nc3ccc(Br)cc3Cl)c(C(=O)NOCCO)cc21 [selumetinib] (first compound 0.4 µM, partner dose 0.015 µM) | 211 | 203 | 570 | 377 | 756 | 712 | 602 | 583 | 567 | 298 | 134 | 105 | 237 | 107 | 106 | 106 | 117 |
| C[C@@H](N)c1ccc(C(=O)Nc2ccnc3[nH]ccc23)cc1 + CN(c1ncccc1CNc1nc(Nc2ccc3c(c2)CC(=O)N3)ncc1C(F)(F)F)S(C)(=O)=O [PF562271] (first compound 0.4 µM, partner dose 0.08 µM) | 105 | 123 | 342 | 282 | 175 | 162 | 34.2 | 130 | 152 | 162 | 148 | 217 | 154 | 86.9 | 64.1 | 381 | 225 |
| CCN(CC)CCNC(=O)c1c(C)[nH]c(/C=C2\C(=O)Nc3ccc(F)cc32)c1C [sunitinib] + CS(=O)(=O)CCNCc1ccc(-c2ccc3ncnc(Nc4ccc(OCc5cccc(F)c5)c(Cl)c4)c3c2)o1 [lapatinib] (first compound 0.4 µM, partner dose 0.8 µM) | 224 | 137 | 520 | 81.4 | 173 | 79.1 | 75 | 220 | 26.9 | 184 | 83.7 | 88.9 | 97.6 | 88.2 | 41.9 | 80.6 | 23.3 |
| Cn1cnc2c(F)c(Nc3ccc(Br)cc3Cl)c(C(=O)NOCCO)cc21 [selumetinib] + O=C(O)c1ccc2c(c1)nc(Nc1cccc(Cl)c1)c1ccncc12 [CX4945] (first compound 0.015 µM, partner dose 0.4 µM) | 104 | 79.2 | 139 | 82.9 | 257 | 102 | 203 | 320 | 98.6 | 103 | 143 | 102 | 144 | 277 | 32.1 | 160 | 170 |
| CCCCCCCCc1ccc(CCC(N)(CO)CO)cc1 [fingolimod] + COc1cc(N2CCC(N3CCN(C)CC3)CC2)ccc1Nc1ncc(Cl)c(Nc2ccccc2S(=O)(=O)C(C)C)n1 [NVP-TAE684] (first compound 2 µM, partner dose 0.08 µM) | 49.2 | 136 |  | 89.2 | 59.6 | 99.7 | 55.7 | 229 |  | 77.2 | 104 | 135 | 110 | 97 | 121 | 53.5 |  |
| CN(c1ncccc1CNc1nc(Nc2ccc3c(c2)CC(=O)N3)ncc1C(F)(F)F)S(C)(=O)=O + CC(=O)c1c(C)c2cnc(Nc3ccc(N4CCNCC4)cn3)nc2n(C2CCCC2)c1=O [palbociclib] (first compound 0.08 µM, partner dose 0.04 µM) | 39.6 | 218 | 497 | 108 | 44.7 | 123 | 72.6 | 94.4 | 66.9 | 17.3 | 64.9 | 133 | 67.7 | 188 | 135 | 200 | 145 |
| CC(=O)O[C@@]12CO[C@@H]1C[C@H](O)[C@@]1(C)C(=O)[C@H](O)C3=C(C)[C@@H](OC(=O)[C@H](O)[C@@H](NC(=O)OC(C)(C)C)c4ccccc4)C[C@@](O)([C@@H](OC(=O)c4ccccc4)[C@H]21)C3(C)C [Docetaxel] + COc1cc2ncnc(Nc3ccc(Oc4ccccc4)cc3)c2cc1OC [SrcI1] (first compound 0.0001 µM, partner dose 2 µM) | 14.1 | 5040 |  | 542 | 378 | 159 | 190 | 249 |  | 510 | 665 | 353 | 630 | 409 | 241 | 97.5 |  |
| C[C@@H](N)c1ccc(C(=O)Nc2ccnc3[nH]ccc23)cc1 + Cn1nnc2c(C(N)=O)ncn2c1=O [temozolomide] (first compound 0.4 µM, partner dose 2 µM) | 58.8 | 101 | 59.7 | 86.9 | 89 | 170 | 112 | 92.4 | 124 | 96.2 | 96.1 | 166 | 154 | 84.5 | 34.2 | 393 | 162 |
